# The other results are listed elsewhere or left out.
# Chains of the proteins cited; added tags and fusions are not shown.
# UniProt Q0JBA9, entry or part of it: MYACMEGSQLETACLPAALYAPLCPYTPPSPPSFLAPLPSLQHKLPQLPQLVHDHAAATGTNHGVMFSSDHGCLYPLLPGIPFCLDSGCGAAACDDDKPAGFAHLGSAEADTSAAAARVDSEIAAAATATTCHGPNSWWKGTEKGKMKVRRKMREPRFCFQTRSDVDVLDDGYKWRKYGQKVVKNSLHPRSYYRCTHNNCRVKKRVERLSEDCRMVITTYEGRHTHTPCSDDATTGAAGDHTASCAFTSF
# Biological target: OsWRKY34 (Oryza sativa, UniProt Q0JBA9 1-250)
# Assay: protein-binding microarray (RPBM); PBS, 2% BSA, 51.3 ng/ul salmon testes DNA, 50 uM zinc acetate, 200 nM TF, 25 C, 1 h; high values mean tight binding
# Conditions: protein: recombinant; tags: N-terminal polyhistidine and DsRed monomer fusion (pET32a); label: CyDye5-dUTP incorporated in the synthesized complementary strand; 3' TTTTT single-stranded linker to array surface; dsDNA, one strand shown
# How it was run: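 Polyhistidine-tagged DsRed fusions of transcription factors, joined at the N-terminus, were expressed in E. coli BL21-CodonPlus and isolated on Ni–NTA. They were incubated at 200 nM for 1 h at 25 °C on a custom Agilent array, double-stranded and BSA-blocked, in PBS with 2% BSA, salmon testes DNA and 50 µM zinc acetate. The binding signal is per-feature fluorescence intensity (arbitrary units) read on an Axon 4000B scanner after washing.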
row,Sequence,binding signal
1,CAATGTAAGTCATTATAGCATTTTCTACATTCATATTGATCGGAGTCACCTAGTGCAG,8360 fluorescence intensity (a.u.)
2,CCTAATCCCACTCTAGTTTCTGAAATAGTAAACGCGCATACGGAGTCACCTAGTGCAG,8950 fluorescence intensity (a.u.)
3,CCCCTTCGACACCTCGACTTGCTTTTCGTCCCTATCTTGACGGAGTCACCTAGTGCAG,9090 fluorescence intensity (a.u.)
4,GTTTTGCGTCATTTGACCAGTACACAGCCACACATGCCATCGGAGTCACCTAGTGCAG,8720 fluorescence intensity (a.u.)
5,ATCTCACTTCTCGCACCTCGCTTTCAGTTTGGTCCATGCCCGGAGTCACCTAGTGCAG,12600 fluorescence intensity (a.u.)
6,AATCCACAACAATGCCAATTTCTTCTTTGCCCAACCCATGCGGAGTCACCTAGTGCAG,8150 fluorescence intensity (a.u.)
7,GCCGAGCTCCATTGCCAACCTCACCGCGCTGCAGACGCTGCGGAGTCACCTAGTGCAG,8620 fluorescence intensity (a.u.)
8,TTGTCATGTTTAATTTCGAACAGCTCATGTGACGGTCAAACGGAGTCACCTAGTGCAG,8530 fluorescence intensity (a.u.)
9,AAACCGGAGTCAAATCCACCGAGGGACTTAGTTTGCACTGCGGAGTCACCTAGTGCAG,9590 fluorescence intensity (a.u.)
10,ATTTCATGCTTTGTTCCTCTGATTACGATCTTGCTCTGTTCGGAGTCACCTAGTGCAG,10800 fluorescence intensity (a.u.)
11,ATTTGGTGTTTAAAATGTTACTATTTTTCTATAAACTTAGCGGAGTCACCTAGTGCAG,8300 fluorescence intensity (a.u.)
12,CCGGTCCAAAATCTAGTTTGACCATGGTCTAACCTACGTGCGGAGTCACCTAGTGCAG,8590 fluorescence intensity (a.u.)
13,AGGTGTTCGTCCATGGACCGCCGGCCGGGGTGGATCTCAACGGAGTCACCTAGTGCAG,8050 fluorescence intensity (a.u.)
14,ACATATCATCCTTACTACTCATGTTTTTAATAATTTCATTCGGAGTCACCTAGTGCAG,8790 fluorescence intensity (a.u.)
15,ACACATTATCTACTCCGTCCACTGTTTTGCAAACTTATCCCGGAGTCACCTAGTGCAG,11500 fluorescence intensity (a.u.)
16,TGCCCCGCTCGCCGGACTTGCCGTGGTTGACCTGCTGCCGCGGAGTCACCTAGTGCAG,11000 fluorescence intensity (a.u.)
17,CTCGCGTCGCGTCCTCTTCCGCATCGGCCCAATCCACCCGCGGAGTCACCTAGTGCAG,8980 fluorescence intensity (a.u.)
18,CCGCCGCTCGCTCGCCCATCCTGCCGTCGCCGCTCCGGGCCGGAGTCACCTAGTGCAG,9200 fluorescence intensity (a.u.)
19,TCTACACTTTTTTTTTCCCTGTACCTATCGAACTCTTTGACGGAGTCACCTAGTGCAG,9240 fluorescence intensity (a.u.)
20,GATTTGTTTTGGTGGCCGCCGGGCCCAACCTGGCATCAACCGGAGTCACCTAGTGCAG,8580 fluorescence intensity (a.u.)
21,GCTGTAATTTTTTCTCTGCCATCATCACTGCATTGGATTACGGAGTCACCTAGTGCAG,11800 fluorescence intensity (a.u.)

row,Sequence,binding signal
1,CCCACTCGTCTCTGTGACCCACCCGCTTCCACTCGCGACTCGGAGTCACCTAGTGCAG,12200 fluorescence intensity (a.u.)
2,AAGTGGTCTTGGTGGTTAGTTGTTTCCGTTGTATTCGTTCCGGAGTCACCTAGTGCAG,11100 fluorescence intensity (a.u.)
3,CACTTGCATGCAGCTGCTACCTAGCTTAGCTTAGCTTAATCGGAGTCACCTAGTGCAG,8170 fluorescence intensity (a.u.)
4,CCCACCTCCACCTCCGCCGGCCGGTACGTTTATCCACTGACGGAGTCACCTAGTGCAG,9030 fluorescence intensity (a.u.)
5,TCTCTCACTGCATAGACACCTGTCATCCATACATCCATCTCGGAGTCACCTAGTGCAG,9330 fluorescence intensity (a.u.)
6,GGACGGAGAAGTAGTTTGGGAAGGTGTTTTCTCTCACTCACGGAGTCACCTAGTGCAG,8200 fluorescence intensity (a.u.)
7,GTCTCCATTGCACCCACGTTGGATCCGCCCTTGCACATGGCGGAGTCACCTAGTGCAG,8470 fluorescence intensity (a.u.)
8,AATACGGCTTGACCTGTTAATTCGATCTGTGCTTTGCTCCCGGAGTCACCTAGTGCAG,8060 fluorescence intensity (a.u.)
9,CTGGGCTTCTGATCGCTTCCATGCTGAGTTGAGTCGTTGCCGGAGTCACCTAGTGCAG,8090 fluorescence intensity (a.u.)
10,GCCAACTACCCTGTCACTCCTTCATAAATTTCCCTCACCTCGGAGTCACCTAGTGCAG,8390 fluorescence intensity (a.u.)
11,GTTGGTTTCTTTGTTCGACGTTTGATCGTCTGTCTTAAAACGGAGTCACCTAGTGCAG,10800 fluorescence intensity (a.u.)
12,AGCAGCAGGGGTGGAGGGAGGAGGCGGTGTCGGGCGCATCCGGAGTCACCTAGTGCAG,14100 fluorescence intensity (a.u.)
13,TGCATTGTTCTTTCTTTCGTTCCATAAGTCGTTGCATCAACGGAGTCACCTAGTGCAG,8270 fluorescence intensity (a.u.)
14,GCGTATATTCTCTTTTCCCCTCCTCACAAACACACCCTAACGGAGTCACCTAGTGCAG,8070 fluorescence intensity (a.u.)
15,TGCCCGAGTGGATCGCCTGGTTTGGATGTCTTGAACTTCTCGGAGTCACCTAGTGCAG,9390 fluorescence intensity (a.u.)
16,AATATACAGTTTTGAGTTTTGACTTAGGCTTCTTTCTACACGGAGTCACCTAGTGCAG,8840 fluorescence intensity (a.u.)
17,CCTTGACAACGAGAATTTCTTCCCACGTACTTGATCGACTCGGAGTCACCTAGTGCAG,9390 fluorescence intensity (a.u.)
18,CGTTTCTTGGTTTCTTCTTGTGCGTCGCCTCGCGCATTGGCGGAGTCACCTAGTGCAG,8570 fluorescence intensity (a.u.)
19,TTTTGACTTTCTCTTACACTGTTTGACCATTTATCTTATTCGGAGTCACCTAGTGCAG,14000 fluorescence intensity (a.u.)
20,TCATACATGTGATCACTCACTCACTCTCACACACACTCTCCGGAGTCACCTAGTGCAG,10100 fluorescence intensity (a.u.)
21,ATGTTCTTCTCACGCGGCTTGTTCGTAACGCTGTTCAGTACGGAGTCACCTAGTGCAG,10200 fluorescence intensity (a.u.)

# An excerpt of these results, with tabs.
row	Sequence	binding signal
9	AAACCGGAGTCAAATCCACCGAGGGACTTAGTTTGCACTGCGGAGTCACCTAGTGCAG	9590 fluorescence intensity (a.u.)
20	GATTTGTTTTGGTGGCCGCCGGGCCCAACCTGGCATCAACCGGAGTCACCTAGTGCAG	8580 fluorescence intensity (a.u.)
15	TGCCCGAGTGGATCGCCTGGTTTGGATGTCTTGAACTTCTCGGAGTCACCTAGTGCAG	9390 fluorescence intensity (a.u.)

# Next records:

row,Sequence,binding signal
1,AATCACTATCTGAACTTTTGCCTGAACCTCAACTTTTATCCGGAGTCACCTAGTGCAG,8060 fluorescence intensity (a.u.)
2,CGTGGCGTATATCCCTTATTTCGATGGGTGGGCTTGGGCTCGGAGTCACCTAGTGCAG,10400 fluorescence intensity (a.u.)
3,GCAATATGTTGGGCTCTGTGGTTGAGTAGGAATGATATGACGGAGTCACCTAGTGCAG,9900 fluorescence intensity (a.u.)
4,CCCCAATTCTCCATTTCTCCTAGCTCGCCGGAAACCCTAACGGAGTCACCTAGTGCAG,9440 fluorescence intensity (a.u.)
5,AAAACATTCTCTTCATTTGTGGTGGTGCTTTTGTTGATTTCGGAGTCACCTAGTGCAG,11900 fluorescence intensity (a.u.)
6,CCTACACATACAAACTTCCAACTTTTCCGTCGCATCGTTCCGGAGTCACCTAGTGCAG,14900 fluorescence intensity (a.u.)
7,TTGGTTTGTTTGTAGGAGTTTCTAACAGCTGCAGCTTCTTCGGAGTCACCTAGTGCAG,11200 fluorescence intensity (a.u.)
8,ATTACTAAGCAGTATCATCATCTTCTCTAAAGCCGTTCCTCGGAGTCACCTAGTGCAG,8380 fluorescence intensity (a.u.)
9,GATCTCTCTCTCGGCTTCTCCTCTCCTCTCTCTCTCTCTCCGGAGTCACCTAGTGCAG,8610 fluorescence intensity (a.u.)
10,GGGGATCAAGATTTGATTTGCGAGGTTCTTTGCTTCATACCGGAGTCACCTAGTGCAG,8600 fluorescence intensity (a.u.)
11,CTCATCACCGCCGCCCACGTCACCCTCTACGACTTCAACACGGAGTCACCTAGTGCAG,9920 fluorescence intensity (a.u.)
12,GATGCTTATCCTCTCCAATTTTTTTCTCTCCTAAACTGATCGGAGTCACCTAGTGCAG,10100 fluorescence intensity (a.u.)
13,GCTGTTTGTTGTTTCTTGCTGCCTGAATTCTCGGATGAATCGGAGTCACCTAGTGCAG,10700 fluorescence intensity (a.u.)
14,ATCACCTTCTTCGGCCACCCCACCTGCCGCTGCTCCGACGCGGAGTCACCTAGTGCAG,9240 fluorescence intensity (a.u.)
15,TTAGTATTAATGAGGACTTGTTGCTGTGGTTTTCTGACTACGGAGTCACCTAGTGCAG,8900 fluorescence intensity (a.u.)
16,ACTCCAGTTTTTCCAAAGCTTCGTCACCTGCCAACTCCTGCGGAGTCACCTAGTGCAG,11700 fluorescence intensity (a.u.)
17,GTATACTACTACTTCTATATTTTAATATATAACACCGTTGCGGAGTCACCTAGTGCAG,8320 fluorescence intensity (a.u.)
18,CGCCACCCGCATCCGTGCTCGCCGCTCCGCCGCCGCGCTCCGGAGTCACCTAGTGCAG,11900 fluorescence intensity (a.u.)
19,GGTTTATGCAACTCCACAACTCCAGTCCAAACCCAACTCCCGGAGTCACCTAGTGCAG,8100 fluorescence intensity (a.u.)
20,CCCACATGTCAGTCTGCCGCTTTGTCCTACCAATCCAAGCCGGAGTCACCTAGTGCAG,9750 fluorescence intensity (a.u.)
21,ATTTTTGTGGGTTTGTTTGAAAGATATGTGGGATAATTGACGGAGTCACCTAGTGCAG,9670 fluorescence intensity (a.u.)

# At a glance, some entries already given.
row,Sequence,binding signal
3,CACTTGCATGCAGCTGCTACCTAGCTTAGCTTAGCTTAATCGGAGTCACCTAGTGCAG,8170 fluorescence intensity (a.u.)
4,CCCACCTCCACCTCCGCCGGCCGGTACGTTTATCCACTGACGGAGTCACCTAGTGCAG,9030 fluorescence intensity (a.u.)
5,TCTCTCACTGCATAGACACCTGTCATCCATACATCCATCTCGGAGTCACCTAGTGCAG,9330 fluorescence intensity (a.u.)

# Later entries:

row,Sequence,binding signal
1,ACTAGCAATTTATTCACCACAATTTTATGTCAGTCACAACCGGAGTCACCTAGTGCAG,10000 fluorescence intensity (a.u.)
2,TCCTCTCGCCATCTCACTCGACTCGCCCAAGAACTCGGAGCGGAGTCACCTAGTGCAG,9150 fluorescence intensity (a.u.)
3,TCCATTATACCATGTCTATGGGCACCAATTTCAGTGCTGACGGAGTCACCTAGTGCAG,8480 fluorescence intensity (a.u.)
4,ACTTATAAACGGATCCGCGCACACCCTATCCATATGAACACGGAGTCACCTAGTGCAG,11300 fluorescence intensity (a.u.)
5,TGTTTCTCGATCGGTACATCGCCAACTTCCGCTCGAGTTTCGGAGTCACCTAGTGCAG,9020 fluorescence intensity (a.u.)
6,ATACAAATTTGTTTGTTTGGTTTGGTTGCACGAATTAATTCGGAGTCACCTAGTGCAG,9330 fluorescence intensity (a.u.)
7,ATAAGTAGCCAGACCGTGTCTAGTGCTCTCTCTCTTTCTTCGGAGTCACCTAGTGCAG,8650 fluorescence intensity (a.u.)
8,GAGCTTCCTATCGCGCCGCCGCGTGCGTACGTGTTTGATCCGGAGTCACCTAGTGCAG,11000 fluorescence intensity (a.u.)
9,CATTTCCCAGTCCAAGCCTGGCTTTCCACCCGTTATTAGTCGGAGTCACCTAGTGCAG,8060 fluorescence intensity (a.u.)
10,GGCCAAGTTTCCTCATCACCCCAGTGGACCCCACGCGTCACGGAGTCACCTAGTGCAG,11800 fluorescence intensity (a.u.)
11,GGATGTAGCTTGATTGCTCGCCGTACGTCGTCGACATGTTCGGAGTCACCTAGTGCAG,8810 fluorescence intensity (a.u.)
12,GCATTCGCTCACTCACACTCACACTCACTCTCTCTCTCTCCGGAGTCACCTAGTGCAG,10200 fluorescence intensity (a.u.)
13,AGAGGAAGTGGGATAAGATGGGGTGGGCATGTAAGAATCTCGGAGTCACCTAGTGCAG,15400 fluorescence intensity (a.u.)
14,CCAGCTTCTTCCGGCGGCTGGTCATCAACTTCTGCTACGACGGAGTCACCTAGTGCAG,8900 fluorescence intensity (a.u.)
15,CTTTTCTTTCCTCTCTTCTCACCGGTTTCATTTGTGCCAACGGAGTCACCTAGTGCAG,10400 fluorescence intensity (a.u.)
16,CCAATCTTTTCTTTCCCTTTTTTATTTTTAATTTTTTTGCCGGAGTCACCTAGTGCAG,8530 fluorescence intensity (a.u.)
17,TCGCCGCTTCCTCTCGCACGCGCGCCGCCATGCCCTCTTCCGGAGTCACCTAGTGCAG,9260 fluorescence intensity (a.u.)
18,AAACTCTCAATTTTTTTTTCCAAACTACCAACTTTCTCTACGGAGTCACCTAGTGCAG,9230 fluorescence intensity (a.u.)
19,ATCGCATCCACCAGCGCCCAAAAACCCTACACCTGCAAACCGGAGTCACCTAGTGCAG,8980 fluorescence intensity (a.u.)
20,TTACTTGTCTCCGCCGCCGCCGCCGCCGACGCCGCCGTCTCGGAGTCACCTAGTGCAG,8910 fluorescence intensity (a.u.)
21,CCTTCCCGTGCCGCTGCTCCCCACCGCCACTGGGAACAACCGGAGTCACCTAGTGCAG,8160 fluorescence intensity (a.u.)
